Assay results as given in EP1030659B1 (Warner-Lambert Company LLC, priority 1997, dated 1999).

Protein sequences, listed by entry. Tags and fused reporters are not part of them.
UniProt P54833, whole entry: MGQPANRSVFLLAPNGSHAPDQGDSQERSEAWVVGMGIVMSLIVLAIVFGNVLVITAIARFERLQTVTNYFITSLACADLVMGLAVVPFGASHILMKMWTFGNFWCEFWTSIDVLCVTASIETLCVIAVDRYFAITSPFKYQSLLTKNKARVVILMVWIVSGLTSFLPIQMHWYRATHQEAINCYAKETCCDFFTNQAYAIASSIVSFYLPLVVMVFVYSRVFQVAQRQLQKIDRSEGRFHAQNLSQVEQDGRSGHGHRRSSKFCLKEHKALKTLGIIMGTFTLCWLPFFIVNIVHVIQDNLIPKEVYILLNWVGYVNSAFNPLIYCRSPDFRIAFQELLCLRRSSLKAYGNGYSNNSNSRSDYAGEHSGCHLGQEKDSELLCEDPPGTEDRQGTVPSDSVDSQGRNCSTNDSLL

Molecular target: T1, β2-receptors (Canis lupus familiaris, UniProt P54833)
T1 construct: The lungs of mongrel dogs were separated from cartilaginous airways and major blood vessels; from tissue; host or cells: mongrel dog lung membranes
Assay: Beta-2 binding, 125iodocyanopindolol (ICYP), canine lung membranes
Design: species or system mongrel dogs
Conditions: check for β1 binding with a β1-selective antagonist

CC(C)NCC(O)COc1ccc(CC(N)=O)cc1 (stereo not shown) [Atenolol, atenolol]
displacement of ICYP from pulmonary membranes: largely ineffective in displacing ICYP
